PubChem BioAssay AID1259405 – NCATS – 2018

- Aim: 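Silenced genes that increase secreted GFP made by CHO cells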 (primary screen)
- Cells: Chinese hamster CHO-K1 ovary cells with stable secreted eGFP expression
- Reagents: single siRNA against mouse genes, 0.8 pmol siRNA per well (2 µl of 400 nM stock)
- Duration: 3 days
- Measured: 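Per-well intracellular GFP measured by laser scanning cytometry, plus viability from ATP luminescence, each relative to plate median of non-targeting control wells, in %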
- Scale: GFP, % of control: higher = more GFP per well, higher productivity; viability (ATP), % of control: higher = more viable cells (more ATP)
- Hit rule: 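a knock-down is called active if GFP reaches 120% or more of non-targeting control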
This is an unselected part of about 50,000 reagents. About 4,000 of them (8%) were called active. 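Mouse siRNA library applied to hamster cells; one well for each siRNA.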 Unmarked entries are inactive. Reagents against one gene are numbered here.

gene knocked down,reagent,"GFP, % of control","viability (ATP), % of control"
Scrt1,1,17.4,34.7
Scrt1,2,54.7,74.8
Lcn4,1,39.7,44.4
Lcn4,2,70.4,65.7
Lcn4,3,53,52.7
Abr,1,92,71.8
Abr,2,115,100
Abr,3,53.2,41.9
Nqo1,1,34.9,64
Nqo1,2,51.2,65.1
Gpn3,1,105,129
Gpn3,2,75.2,83.5
Gpn3,3,64.4,68.9
Usp22,1,79.7,88.9
Usp22,2,95.3,89.7
Usp22,3,32,44.1
Nedd9,1,57,82
Nedd9,2,66.4,85.4
Ikzf5,1,55.8,65.4
Ikzf5,2,92.5,105
Ikzf5,3,112,85.7
2310022B05Rik,1,73.5,69.2
2310022B05Rik,2,99.3,118
2310022B05Rik,3,34.9,57.5
Slf2,1,63.9,34.5
Slf2,2,107,103
Slf2,3,113,123
Naip1,1,99.9,91.7
Naip1,2,115,77.6
Naip1,3,73.7,64.8
Or13a27,1,113,61.7
Or13a27,2,105,75.4
Or13a27,3,59.3,79.5
Vmn1r197,1,89.9,69.6
Vmn1r197,2,53.3,54.6
Vmn1r197,3,69.2,82.1

Reprinted from the listing for reference:
gene knocked down,reagent,"GFP, % of control","viability (ATP), % of control"
Slf2,1,63.9,34.5
Slf2,2,107,103
Slf2,3,113,123
Naip1,1,99.9,91.7
Naip1,2,115,77.6
Naip1,3,73.7,64.8
Or13a27,1,113,61.7
Or13a27,2,105,75.4

Additional entries:
gene knocked down,reagent,"GFP, % of control","viability (ATP), % of control"
Dsc2,1,72.1,69.1
Dsc2,2,94.9,76.3
Dsc2,3,83.6,81.8
Amigo3,1,95.2,54.8
Amigo3,2,64.8,69.8
Amigo3,3,0,116
Cdc37,1,143 (active),109
Cdc37,2,84.6,79.1
Cdc37,3,75.9,162
Shf,1,60.4,56.3
Shf,2,44.7,9.35
Shf,3,31.8,34.1
Araf,1,137 (active),81.3
Trpm8,1,61.3,62.1
Trpm8,2,103,119
Trpm8,3,68.7,75.7
Itga2b,1,130 (active),76.3
Itga2b,2,126 (active),89
Hsp90aa1,1,43.1,50.9
Hsp90aa1,2,106,51.2
Hsp90aa1,3,55.4,73
